US20180362612A1
No constants are given. Whether binding was seen depends on the method and setting. Some binding calls cover weakened binding; strength is not graded here.

Legend:
[1] = molecular target: T1, AITR on AITR-overexpressed Jurkat cells (pcDNA3.1(+)/CD5L-AITR-TM-ECD) (human) (UniProt Q9Y5U5); experiment: flow cytometry, PE-conjugated antibody on AITR-overexpressed Jurkat cells (FIG. 1B)
T1 sequence (looked up): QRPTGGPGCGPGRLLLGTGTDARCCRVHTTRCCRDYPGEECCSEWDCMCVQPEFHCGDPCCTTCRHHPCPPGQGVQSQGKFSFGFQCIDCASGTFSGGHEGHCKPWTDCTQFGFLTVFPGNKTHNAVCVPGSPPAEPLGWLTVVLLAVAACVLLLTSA

[2] = molecular target: activation-inducible tumor necrosis factor receptor (AITR), endogenous on human T cells (human) (UniProt Q9Y5U5); experiment: flow cytometry on anti-CD3/IL-2-activated human CD4+ T cells
[3] = molecular target: T1, AITR on AITR-overexpressed Jurkat cells (pcDNA3.1(+)/CD5L-AITR-TM-ECD) (human); experiment: flow cytometry on AITR-overexpressed Jurkat cells (FIG. 1B)

Measured: binding

B1: anti-AITR monoclonal antibody B62 (antibody, V domains shown)
VH: EVQLVQSGGGLVQPGGSLRLSCSASGFSFSSYAMHWVRQAPGKGLEYVSGISDNGGSTKYADSVKGRFTISRDNSQNTLYLQMSSLRSEDTAVYYCARGGPTYYDFWSGYYTDEDAFDIWGQGTLVTVSS
VL: EIVMTQSPSSLSASVGDRVTITCRASQSINNYLNWYQQKPGKAPKLLIYATSRLQSGVPSRFSGSGSGADLTLTISSLQPEDVATYYCQQSYSFPWTFGQGTKVEIK
binds: all assays above
